Reference: ChEMBL document CHEMBL4316593 (Eur J Med Chem, 2019)
This continues a long series; more values of the same kind are listed elsewhere.

Tests used:
Assay type in all cases: cell-based
Details in all cases: U-87MG ATCC
[1] = Inhibition of RTK/PI3K/AKT/mTOR signaling in human U87 cells assessed as down regulation of FBXO6 gene expression at cytotoxic IC50 measured after 48 hrs relative to control
[2] = Inhibition of RTK/PI3K/AKT/mTOR signaling in human U87 cells assessed as down regulation of PLPBP gene expression at cytotoxic IC50 measured after 48 hrs relative to control
[3] = Inhibition of RTK/PI3K/AKT/mTOR signaling in human U87 cells assessed as down regulation of CHAF1B gene expression at cytotoxic IC50 measured after 48 hrs relative to control
[4] = Inhibition of RTK/PI3K/AKT/mTOR signaling in human U87 cells assessed as down regulation of C10orf35 gene expression at cytotoxic IC50 measured after 48 hrs relative to control
[5] = Inhibition of RTK/PI3K/AKT/mTOR signaling in human U87 cells assessed as down regulation of LIN52 gene expression at cytotoxic IC50 measured after 48 hrs relative to control
[6] = Inhibition of RTK/PI3K/AKT/mTOR signaling in human U87 cells assessed as down regulation of HSPA1B gene expression at cytotoxic IC50 measured after 48 hrs relative to control
[7] = Inhibition of RTK/PI3K/AKT/mTOR signaling in human U87 cells assessed as down regulation of SP4 gene expression at cytotoxic IC50 measured after 48 hrs relative to control
[8] = Inhibition of RTK/PI3K/AKT/mTOR signaling in human U87 cells assessed as down regulation of ISG20L2 gene expression at cytotoxic IC50 measured after 48 hrs relative to control
[9] = Inhibition of RTK/PI3K/AKT/mTOR signaling in human U87 cells assessed as down regulation of SLC6A17 gene expression at cytotoxic IC50 measured after 48 hrs relative to control
[10] = Inhibition of RTK/PI3K/AKT/mTOR signaling in human U87 cells assessed as down regulation of SKI gene expression at cytotoxic IC50 measured after 48 hrs relative to control
[11] = Inhibition of RTK/PI3K/AKT/mTOR signaling in human U87 cells assessed as down regulation of MIGA1 gene expression at cytotoxic IC50 measured after 48 hrs relative to control
[12] = Inhibition of RTK/PI3K/AKT/mTOR signaling in human U87 cells assessed as down regulation of TACC1 gene expression at cytotoxic IC50 measured after 48 hrs relative to control
[13] = Inhibition of RTK/PI3K/AKT/mTOR signaling in human U87 cells assessed as down regulation of IER2 gene expression at cytotoxic IC50 measured after 48 hrs relative to control
[14] = Inhibition of RTK/PI3K/AKT/mTOR signaling in human U87 cells assessed as down regulation of H2AFZ gene expression at cytotoxic IC50 measured after 48 hrs relative to control
[15] = Inhibition of RTK/PI3K/AKT/mTOR signaling in human U87 cells assessed as down regulation of CCNL1 gene expression at cytotoxic IC50 measured after 48 hrs relative to control
[16] = Inhibition of RTK/PI3K/AKT/mTOR signaling in human U87 cells assessed as down regulation of MAN2A1 gene expression at cytotoxic IC50 measured after 48 hrs relative to control
[17] = Inhibition of RTK/PI3K/AKT/mTOR signaling in human U87 cells assessed as down regulation of SHTN1 gene expression at cytotoxic IC50 measured after 48 hrs relative to control
[18] = Inhibition of RTK/PI3K/AKT/mTOR signaling in human U87 cells assessed as down regulation of RBM25 gene expression at cytotoxic IC50 measured after 48 hrs relative to control
[19] = Inhibition of RTK/PI3K/AKT/mTOR signaling in human U87 cells assessed as down regulation of KIF5B gene expression at cytotoxic IC50 measured after 48 hrs relative to control
[20] = Inhibition of RTK/PI3K/AKT/mTOR signaling in human U87 cells assessed as up regulation of SEMA6B gene expression at cytotoxic IC50 measured after 48 hrs relative to control
[21] = Inhibition of RTK/PI3K/AKT/mTOR signaling in human U87 cells assessed as up regulation of LIF, interleukin 6 family cytokine gene expression at cytotoxic IC50 measured after 48 hrs relative to control
[22] = Inhibition of RTK/PI3K/AKT/mTOR signaling in human U87 cells assessed as up regulation of homeobox D8 gene expression at cytotoxic IC50 measured after 48 hrs relative to control
[23] = Inhibition of RTK/PI3K/AKT/mTOR signaling in human U87 cells assessed as up regulation of myeloma overexpressed gene expression at cytotoxic IC50 measured after 48 hrs relative to control
[24] = Inhibition of RTK/PI3K/AKT/mTOR signaling in human U87 cells assessed as up regulation of family with sequence similarity 129 member B gene expression at cytotoxic IC50 measured after 48 hrs relative to control
[25] = Inhibition of RTK/PI3K/AKT/mTOR signaling in human U87 cells assessed as up regulation of PEST proteolytic signal containing nuclear protein gene expression at cytotoxic IC50 measured after 48 hrs relative to control
[26] = Inhibition of RTK/PI3K/AKT/mTOR signaling in human U87 cells assessed as up regulation of CCAAT/enhancer binding protein gamma gene expression at cytotoxic IC50 measured after 48 hrs relative to control
[27] = Inhibition of RTK/PI3K/AKT/mTOR signaling in human U87 cells assessed as up regulation of DET1 and DDB1 associated 1 gene expression at cytotoxic IC50 measured after 48 hrs relative to control
[28] = Inhibition of RTK/PI3K/AKT/mTOR signaling in human U87 cells assessed as up regulation of alkB homolog 5, RNA demethylase gene expression at cytotoxic IC50 measured after 48 hrs relative to control
[29] = Inhibition of RTK/PI3K/AKT/mTOR signaling in human U87 cells assessed as up regulation of VMA21, vacuolar ATPase assembly factor gene expression at cytotoxic IC50 measured after 48 hrs relative to control
[30] = Inhibition of RTK/PI3K/AKT/mTOR signaling in human U87 cells assessed as up regulation of protein kinase N1 gene expression at cytotoxic IC50 measured after 48 hrs relative to control
[31] = Inhibition of RTK/PI3K/AKT/mTOR signaling in human U87 cells assessed as up regulation of TMEM230 gene expression at cytotoxic IC50 measured after 48 hrs relative to control
[32] = Inhibition of RTK/PI3K/AKT/mTOR signaling in human U87 cells assessed as up regulation of STK25 gene expression at cytotoxic IC50 measured after 48 hrs relative to control

CC(=O)C(=NNc1ccccc1C#N)C(C)=O
log2FC [1]: -1.16
log2FC [2]: -1.11
log2FC [3]: -1.06
log2FC [4]: -1.05
log2FC [5]: -1.04
log2FC [6]: -4.16
log2FC [7]: -0.895
log2FC [8]: -0.774
log2FC [9]: -0.751
log2FC [10]: -0.728
log2FC [11]: -0.709
log2FC [12]: -0.697
log2FC [13]: -0.69
log2FC [14]: -0.681
log2FC [15]: -0.67
log2FC [16]: -0.534
log2FC [17]: -0.524
log2FC [18]: -0.513
log2FC [19]: -0.452
log2FC [20]: 1.6
log2FC [21]: 1.26
log2FC [22]: 1.2
log2FC [23]: 1.11
log2FC [24]: 0.944
log2FC [25]: 0.914
log2FC [26]: 0.832
log2FC [27]: 0.779
log2FC [28]: 0.76
log2FC [29]: 0.662
log2FC [30]: 0.649
log2FC [31]: 0.605
log2FC [32]: 0.582
